Reference: paper PMC6104189
Results are given in words; binding and its absence hold for the method and conditions named. Binding seen in cells or lysates may run through a third protein. Some entries that bind do so weakly or less than the wild type.

Protein sequences, listed by entry. Tags and fused reporters are not part of them.
UniProt P09874: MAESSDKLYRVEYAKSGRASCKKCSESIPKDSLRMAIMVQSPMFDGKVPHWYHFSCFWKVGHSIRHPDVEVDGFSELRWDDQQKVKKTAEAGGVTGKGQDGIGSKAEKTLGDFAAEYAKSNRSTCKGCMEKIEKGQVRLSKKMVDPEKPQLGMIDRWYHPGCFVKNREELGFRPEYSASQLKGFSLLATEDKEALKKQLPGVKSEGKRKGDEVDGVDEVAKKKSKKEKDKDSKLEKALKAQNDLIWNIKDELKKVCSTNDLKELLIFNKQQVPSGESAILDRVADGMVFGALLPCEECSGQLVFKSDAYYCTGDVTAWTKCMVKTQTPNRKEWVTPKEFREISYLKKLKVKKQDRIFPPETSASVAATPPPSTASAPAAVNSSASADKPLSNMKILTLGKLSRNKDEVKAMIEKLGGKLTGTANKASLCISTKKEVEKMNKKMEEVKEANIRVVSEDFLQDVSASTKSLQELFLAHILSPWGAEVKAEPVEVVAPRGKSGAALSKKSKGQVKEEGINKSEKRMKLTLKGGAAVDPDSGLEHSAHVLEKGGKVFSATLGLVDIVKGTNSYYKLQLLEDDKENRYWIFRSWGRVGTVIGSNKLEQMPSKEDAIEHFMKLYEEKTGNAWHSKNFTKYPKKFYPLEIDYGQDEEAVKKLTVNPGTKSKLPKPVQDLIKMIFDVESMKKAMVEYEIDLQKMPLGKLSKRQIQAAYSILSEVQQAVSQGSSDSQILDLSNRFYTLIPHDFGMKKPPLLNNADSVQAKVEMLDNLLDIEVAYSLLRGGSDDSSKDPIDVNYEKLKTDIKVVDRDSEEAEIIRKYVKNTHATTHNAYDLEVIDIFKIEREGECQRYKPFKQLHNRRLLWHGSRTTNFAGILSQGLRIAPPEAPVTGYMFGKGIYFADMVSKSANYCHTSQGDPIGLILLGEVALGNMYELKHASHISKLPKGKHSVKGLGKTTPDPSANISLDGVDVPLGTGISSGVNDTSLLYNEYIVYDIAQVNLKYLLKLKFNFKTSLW
UniProt P28482: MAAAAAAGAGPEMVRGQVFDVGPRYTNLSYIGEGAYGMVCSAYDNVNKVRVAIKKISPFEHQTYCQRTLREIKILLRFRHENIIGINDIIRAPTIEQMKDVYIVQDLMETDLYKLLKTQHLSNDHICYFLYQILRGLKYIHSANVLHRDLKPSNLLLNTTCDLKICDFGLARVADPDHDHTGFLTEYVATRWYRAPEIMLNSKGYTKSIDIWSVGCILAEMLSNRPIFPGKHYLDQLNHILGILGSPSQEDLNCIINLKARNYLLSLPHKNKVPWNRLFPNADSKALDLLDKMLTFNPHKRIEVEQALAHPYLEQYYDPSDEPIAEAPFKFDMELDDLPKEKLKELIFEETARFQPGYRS

Target: Poly-(ADP-ribose) transferase/polymerase-1 (human (endogenous in HAECs)) (UniProt P09874)
Test: co-IP; HAECs (with or without oxLDL) harvested in lysis buffer; immunoprecipitation with anti-PARP1 antibody at 4°C overnight, protein A/G beads 4 h, washed five times with PBS; immunoblot with anti-phosphorylated ERK1/2 antibodies

Q: Which binding does the source give for “phosphorylated ERK2 (from UniProt P28482 1-360) (enzyme)” here?
A: binds
